Data on one molecule can be found in paper PMC7529891.

The chains behind the UniProt entries cited, without tags or fusion partners.
UniProt Q96AC1: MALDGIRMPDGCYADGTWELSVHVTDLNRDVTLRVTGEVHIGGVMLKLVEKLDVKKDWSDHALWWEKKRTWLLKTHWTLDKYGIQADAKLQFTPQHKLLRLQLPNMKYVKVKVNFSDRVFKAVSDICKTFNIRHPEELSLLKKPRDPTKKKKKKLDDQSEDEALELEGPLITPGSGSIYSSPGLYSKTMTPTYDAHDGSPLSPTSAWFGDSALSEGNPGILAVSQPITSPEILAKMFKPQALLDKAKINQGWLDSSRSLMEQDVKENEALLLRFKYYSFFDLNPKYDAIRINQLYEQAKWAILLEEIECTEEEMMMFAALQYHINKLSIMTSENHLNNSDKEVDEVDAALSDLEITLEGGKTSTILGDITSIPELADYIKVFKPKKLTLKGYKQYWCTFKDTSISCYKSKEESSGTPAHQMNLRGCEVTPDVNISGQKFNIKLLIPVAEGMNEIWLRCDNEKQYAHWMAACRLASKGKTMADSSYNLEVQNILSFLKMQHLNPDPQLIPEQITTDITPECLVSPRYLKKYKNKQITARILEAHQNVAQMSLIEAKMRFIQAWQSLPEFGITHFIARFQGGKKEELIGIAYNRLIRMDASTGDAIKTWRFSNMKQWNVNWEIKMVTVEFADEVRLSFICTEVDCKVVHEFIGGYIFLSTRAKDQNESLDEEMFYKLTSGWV

Assay [1] has as its target kindlin-2 (human (endogenous in A549)) (UniProt Q96AC1). Kind of assay: proximity ligation; Duolink PLA on fixed, permeabilised A549 cells with rabbit anti-PYCR1 and mouse anti-kindlin-2 (clone 3A3.5); wild type cells, PINCH-1 KO (inhibited), 3xFLAG-PINCH-1 re-expression (restored), DRP1 siRNA (increased), 3xFLAG-MFN2 overexpression (increased).
Assay [2] has the same target. Kind of assay: co-IP; A549 cell lysates (0.5-2 mg protein), IP overnight at 4 °C with mouse anti-kindlin-2 (clone 3A3.5), Protein A/G agarose, blot for PYCR1; wild type cells, PINCH-1 KO (reduced), 3xFLAG-PINCH-1 re-expression (restored), DRP1 siRNA in PINCH-1 KO cells (increased).

These are yes or no findings as the source states them, for the method shown. Binding seen in cells or lysates may run through a third protein. Some results given as binding are weak or reduced against the parent protein; the word gives no strength.

B1: pyrroline-5-carboxylate reductase 1 (enzyme, UniProt P32322 1-319)
chain: MSVGFIGAGQLAFALAKGFTAAGVLAAHKIMASSPDMDLATVSALRKMGVKLTPHNKETVQHSDVLFLAVKPHIIPFILDEIGADIEDRHIVVSCAAGVTISSIEKKLSAFRPAPRVIRCMTNTPVVVREGATVYATGTHAQVEDGRLMEQLLSSVGFCTEVEEDLIDAVTGLSGSGPAYAFTALDALADGGVKMGLPRRLAVRLGAQALLGAAKMLLHSEQHPGQLKDNVSSPGGATIHALHVLESGGFRSLLINAVEASCIRTRELQSMADQEQVSPAAIKKTILDKVKLDSPAGTALSPSGHTKLLPRSLAPAGKD
For the molecule B1, the binding result in assay [1] and in assay [2] was “binds” throughout.
